The text below walks through data of publication PMC3896488.

Chains of the proteins cited; added tags and fusions are not shown. Lines headed by an entry give the natural chain unless they say otherwise; changes in a name come on top. A line that says so, or that is headed by a name, gives the form on record, which may keep a tag or linker.
Protein kinase C β2 (P68403-2, form named): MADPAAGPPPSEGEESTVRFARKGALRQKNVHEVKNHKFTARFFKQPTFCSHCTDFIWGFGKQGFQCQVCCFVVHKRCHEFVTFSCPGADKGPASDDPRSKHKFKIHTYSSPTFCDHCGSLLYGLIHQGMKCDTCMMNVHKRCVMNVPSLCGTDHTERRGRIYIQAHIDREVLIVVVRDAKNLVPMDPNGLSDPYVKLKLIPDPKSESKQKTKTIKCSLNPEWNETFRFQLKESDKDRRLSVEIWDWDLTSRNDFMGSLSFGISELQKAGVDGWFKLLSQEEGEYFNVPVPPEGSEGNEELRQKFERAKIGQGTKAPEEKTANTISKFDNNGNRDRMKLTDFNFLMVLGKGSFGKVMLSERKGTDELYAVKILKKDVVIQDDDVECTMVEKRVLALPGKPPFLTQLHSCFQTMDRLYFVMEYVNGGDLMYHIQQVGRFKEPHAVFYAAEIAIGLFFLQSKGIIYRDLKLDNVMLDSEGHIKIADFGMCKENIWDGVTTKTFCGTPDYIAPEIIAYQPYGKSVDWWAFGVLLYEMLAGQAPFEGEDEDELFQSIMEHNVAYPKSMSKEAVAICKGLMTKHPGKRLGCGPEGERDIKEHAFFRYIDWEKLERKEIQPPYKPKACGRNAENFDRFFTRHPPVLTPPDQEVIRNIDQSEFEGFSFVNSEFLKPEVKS
UniProt Q62868: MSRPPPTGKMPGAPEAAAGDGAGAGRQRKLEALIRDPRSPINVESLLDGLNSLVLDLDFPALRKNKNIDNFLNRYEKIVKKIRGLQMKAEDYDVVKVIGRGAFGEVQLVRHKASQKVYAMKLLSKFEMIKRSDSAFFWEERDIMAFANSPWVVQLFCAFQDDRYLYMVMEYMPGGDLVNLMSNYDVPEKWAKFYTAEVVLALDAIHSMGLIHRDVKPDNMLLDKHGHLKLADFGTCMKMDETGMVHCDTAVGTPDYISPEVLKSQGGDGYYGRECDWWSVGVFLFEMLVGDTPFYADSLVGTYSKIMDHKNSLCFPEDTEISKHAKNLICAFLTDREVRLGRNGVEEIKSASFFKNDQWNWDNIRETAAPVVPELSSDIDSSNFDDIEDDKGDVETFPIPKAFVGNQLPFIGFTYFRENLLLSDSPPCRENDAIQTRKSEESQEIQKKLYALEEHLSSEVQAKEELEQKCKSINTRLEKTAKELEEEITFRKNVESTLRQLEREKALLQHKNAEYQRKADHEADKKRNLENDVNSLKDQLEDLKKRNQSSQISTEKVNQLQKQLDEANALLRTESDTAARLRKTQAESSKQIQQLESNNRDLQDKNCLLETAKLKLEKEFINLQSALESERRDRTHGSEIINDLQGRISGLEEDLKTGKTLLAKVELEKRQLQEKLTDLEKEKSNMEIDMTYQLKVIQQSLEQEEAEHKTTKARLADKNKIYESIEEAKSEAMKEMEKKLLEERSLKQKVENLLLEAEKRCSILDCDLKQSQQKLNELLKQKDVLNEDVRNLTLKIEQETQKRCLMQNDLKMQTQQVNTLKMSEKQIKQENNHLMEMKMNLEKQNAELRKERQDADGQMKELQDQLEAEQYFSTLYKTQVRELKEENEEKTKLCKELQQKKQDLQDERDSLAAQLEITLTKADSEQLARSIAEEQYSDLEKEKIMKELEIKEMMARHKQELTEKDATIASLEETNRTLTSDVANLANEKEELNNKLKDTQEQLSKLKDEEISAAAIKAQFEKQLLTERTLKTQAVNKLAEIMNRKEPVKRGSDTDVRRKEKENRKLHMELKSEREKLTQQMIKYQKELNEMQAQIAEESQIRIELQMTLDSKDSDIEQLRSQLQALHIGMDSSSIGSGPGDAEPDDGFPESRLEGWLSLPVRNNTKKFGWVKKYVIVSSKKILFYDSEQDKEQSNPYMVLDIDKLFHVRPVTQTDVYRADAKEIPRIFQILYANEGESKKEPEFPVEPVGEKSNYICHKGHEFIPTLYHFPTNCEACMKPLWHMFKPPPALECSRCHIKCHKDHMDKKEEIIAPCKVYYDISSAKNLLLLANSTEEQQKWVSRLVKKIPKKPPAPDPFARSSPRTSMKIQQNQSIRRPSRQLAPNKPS

Experiment [1] concerns the target Protein kinase C β2 (rat (endogenous in Wistar rat heart)) (UniProt P68403). Briefly: co-IP; 500 µg protein from control and diabetic rat hearts (untreated or perfused with 1 µM H-1152) incubated with anti-PKCβ2 or anti-ROCK2 antibody cross-linked to agarose resin (Pierce); Western blot of the precipitate. In general terms: A western blot detects proteins with antibodies after separation by electrophoresis.

Experiment [2] concerns the target ROCK2 (rat (endogenous in Wistar rat heart)) (UniProt Q62868). Described as above.

Results are given in words; binding and its absence hold for the method and conditions named. Binding seen in cells or lysates may run through a third protein. Some binding calls cover weakened binding; strength is not graded here.

For the substance “ROCK2 (from UniProt Q62868 1-1388) (enzyme)”, the binding result in experiment [1] is listed as “binds”.
On to “Protein kinase C β2 (from UniProt P68403-2 1-673) (enzyme)”, for which the binding result in experiment [2] was “binds”.
